Measured values reported in patent US20240165066A1, “LYMPH-RELEASING COMPOSITIONS OF FATTY ACIDS AND USES THEREOF FOR LYMPHATIC INCORPORATION AND SYSTEMIC DISEASE TREATMENT” (Amarin Pharmaceuticals Ireland Limited, priority 2022, published 2024).
For at least one compound, name, drawing or mass did not settle the structure.

Columns and labels:
[1] = test system: Human umbilical vein endothelial cells (HUVECs); assay: LC/MS proteomics of HUVECs treated with EPA or DHA and challenged with IL-6; type: cell-based; conditions: 10 μM for 2 hours, then IL-6 (12 ng/mL) 24 h; vs IL-6 alone
Procedure: Human umbilical vein endothelial cells (HUVECs) were isolated into primary cultures from female donors by Clonetics (San Diego, California) and purchased as proliferating cells. All cell culture donors were healthy, with no pregnancy or prenatal complications. The cultured cells were incubated in 95% air/5% CO2 at 37° C. and passaged by an enzymatic (trypsin) procedure. The confluent cells (4 to 5×10^5 cells/35 mm dish) were placed with minimum essential medium containing 3 mM L-arginine and 0.1 mM BH4 [(6R)-5,6,7,8-tetrahydrobiopterin]. Before experimental use, the cells (from second or third passage) were rinsed twice with Tyrode-HEPES buffer with 1.8 mM CaCl2).
EPA and DHA were purchased from Sigma-Aldrich (St. Louis, MO) and prepared initially in redistilled ethanol. Primary and secondary stock solutions were prepared and stored under nitrogen at −20° C.
HUVECs were treated with vehicle, EPA, or DHA (10 μM) for 2 hours, and then challenged with IL-6 (12 ng/mL) for 24 h hours. After incubation, cells were pelleted and frozen at −80° C. until proteomic analysis was performed.
Relative protein expression levels among the various treatments were measured using LC/MS proteomic techniques. Following protein digest, peptides are separated over a reverse phase column and then identified based on their mass.
Cell pellets were lysed using methanol/chloroform extraction. Proteins were denatured, reduced, alkylated, and trypsin digested. Samples were then prepared for Tandem Mass Tag (TMT) 10plex labeling. A bicinchoninic acid (BCA) assay was performed on each sample to quantify the total protein in each sample, which is important to confirm equal amounts of each sample are added to the multiplex sample. Each peptide in a sample was given a unique, low molecular weight (typically 126-130 Da), and then the samples were combined.
Each multiplexed sample was then fractionated to increase the overall protein coverage using high pH reversed phase fractionation and analyzed by LC/MS using a Dionex UltiMate 3000 RSLC in tandem with a Q-Exactive/Lumos Orbitrap Mass Spectrometer. The chromatography was performed using a 2-hour gradient on a Thermo Pepmap C18 column (100 Å pore size, 3.0 μm particle size, […]) set at 50° C. Mobile phase A was water with 0.1% formic acid, and mobile phase B was acetonitrile with 0.1% formic acid.
A bioinformatic package was applied to all the mass spectrometry intensity data known as Differential Enrichment analysis of Proteomics data (DEP) to process proteomic data (FIGS. 35-37).

brain endothelial cells = assay: IL-6 provoked-inflammation cell culture, proteomics; type: cell-based; conditions: IL-6 in presence of EPA
Source text: (§1) FIG. 34B presents results from a provoked-inflammation cell-culture study with proteomics outcomes, wherein endothelial cells from various tissues were exposed to the inflammatory cytokine IL-6 in the absence or presence of EPA. […] Also of interest are related increases in proteins involved in the related antioxidant ferritin in vascular endothelial cells. Finally fatty acid desaturase 1 (FADS1) encodes the Δ5-desaturase enzyme and fatty acid desaturase 2 (FADS2) encodes the […] enzyme.
(§2) In a series of tissue culture experiments cells were provoked with IL-6 to induce an inflammatory and cellular injury response, and EPA added to determine whether it moderated proteins involved in injury responses. […] Thus, the proteomics results not only affirm the ability of EPA to promote HO-1, but also confirm the ability of EPA to inhibit […], corroborating the aforementioned ability of EtEPA to suppress the Δ5-desaturase index, for example.

[2] = test system: vascular endothelial cells; assay: as above; type: cell-based; conditions: IL-6 in presence of EPA
Source text: as §1, §2

endothelial cells = assay: IL-6 provoked-inflammation proteomics, cell type not specified (FIG. 34B); type: cell-based
[3] = test system: Primary human lung microvascular endothelial cells (HMVEC-Ls, PECs); assay: LC/MS proteomics of pulmonary endothelial cells exposed to air pollution particulate matter; type: cell-based
Procedure: Primary human lung microvascular endothelial cells (HMVEC-Ls, PECs) were purchased from Lonza (Manassas, VA). Cells were cultured in complete endothelial cell growth medium and maintained at 37° C. in a 95% air/5% CO2 humidified incubator. Cells were supplied with fresh medium every other day and propagated by an enzymatic (trypsin) procedure. Cell culture medium also contained 2% FBS to facilitate fatty acid treatment.
EPA was purchased from Sigma-Aldrich (Saint Louis, MO) and solubilized in redistilled ethanol under nitrogen atmosphere and stored at −20° C.
Urban air particulate matter and fine particulate matter were purchased from Sigma-Aldrich (SRM 1648a), catalog #: NIST1648a3110 and NIST27863110. The mean particle diameters were 5.85 and 2.8 μm, respectively.
PECs were pre-treated with EPA (40 μM) for 2 hours in 2% FBS-containing medium and then challenged with urban particulate matter (50 μg/mL) for 2 hours. After 2 hours, media was washed out and HBSS buffer was added. After incubation, cells were pelleted and frozen at −80° C. until proteomic analysis was performed. Relative protein expression levels among the various treatments were measured using LC/MS proteomic techniques (FIG. 40).
Cell pellets were lysed using methanol/chloroform extraction. Proteins were then denatured, reduced, alkylated, and trypsin digested. Samples were labeled by Tandem Mass Tag (TMT) 10plex labeling to multiplex the samples and ensure that the injection, LC, and MS conditions are identical for each sample. A bicinchoninic acid (BCA) assay was performed to quantify the total protein in each sample. Each peptide in a sample was given a unique, low molecular weight (typically 126-130 Da), and then the samples were combined.
Each multiplexed sample was then fractionated to increase the overall protein coverage using high pH reversed phase fractionation and analyzed by LC/MS using a Dionex UltiMate 3000 RSLC in tandem with a Q-Exactive/Lumos Orbitrap Mass Spectrometer.
A ComBat function was applied to all mass spectrometry intensity data to correct for batch effects. The bioinformatic package Differential Enrichment analysis of Proteomics data (DEP) was used to process proteomic data and generate the figures.

[4] = Multiple-daily dosing by gavage (7-day and 21-day exposure), tissue fatty acid levels; type: in vivo, Long-Evans rats; conditions: equimolar doses
Δ5-elongase = assay: Functional Δ5-elongase index at ω-3 (DPA:EPA); type: in vivo, Long-Evans rats; conditions: across treatment arms, several tissues
[5] = high dose IPE (4 g/day), statin-treated patients with elevated baseline triglyceride levels; cited from earlier work
[6] = endothelial cells, IL-6 challenge

CC/C=C\C/C=C\C/C=C\C/C=C\C/C=C\C/C=C\CCC(=O)O [DHA, docosahexaenoic acid]
DDAH-1 protein change [1]: n.s. | DDAH-2 protein change [1]: n.s. | PRDX2 protein change [1]: n.s. | eNOS protein change [1]: n.s

CC/C=C\C/C=C\C/C=C\C/C=C\C/C=C\CCCC(=O)O [EPA, eicosapentaenoic acid]
FADS1 protein (brain endothelial cells): significantly suppressed | FADS2 protein (brain endothelial cells): significantly suppressed | FADS2 protein [2]: significantly suppressed | protein product of fatty acid desaturase 2 (FADS2) (endothelial cells; [6]): strongly suppressed | Δ5-desaturase, protein product of fatty acid desaturase 1 (FADS1) (endothelial cells; [6]): strongly suppressed | Angiotensin-converting enzyme (ACE), proteomics (endothelial cells; unpublished proteomics work (FIG. 34B)): inhibited | PRDX3 protein change [1]: n.s. | PRDX4 protein change [1]: n.s. | PRDX6 protein change [1]: n.s. | expression of C-X-C motif chemokine 6 ([3]; compared to urban PMs): decreased | expression of glutathione S-transferase P ([3]; compared to urban PMs): increased | expression of heat shock protein 90-β ([3]; relative to fine PMs): increased | expression of interleukin enhancer-binding factor 2 ([3]; relative to fine PMs): decreased

CC/C=C\C/C=C\C/C=C\C/C=C\C/C=C\CCCC(=O)OCC [EtEPA, eicosapentaenoic acid ethyl ester]
Effect on DGLA in lung tissue compared to E+G+D [4]: superior | Δ5-elongation index at ω-3 (DPA:EPA) (Δ5-elongase): substantially suppresses | reduction of composite cardiovascular events [5]: 25%
